Binding data for one substance are collected here from paper PMC10575817.

Chains of the proteins cited; added tags and fusions are not shown.
UniProt P16989: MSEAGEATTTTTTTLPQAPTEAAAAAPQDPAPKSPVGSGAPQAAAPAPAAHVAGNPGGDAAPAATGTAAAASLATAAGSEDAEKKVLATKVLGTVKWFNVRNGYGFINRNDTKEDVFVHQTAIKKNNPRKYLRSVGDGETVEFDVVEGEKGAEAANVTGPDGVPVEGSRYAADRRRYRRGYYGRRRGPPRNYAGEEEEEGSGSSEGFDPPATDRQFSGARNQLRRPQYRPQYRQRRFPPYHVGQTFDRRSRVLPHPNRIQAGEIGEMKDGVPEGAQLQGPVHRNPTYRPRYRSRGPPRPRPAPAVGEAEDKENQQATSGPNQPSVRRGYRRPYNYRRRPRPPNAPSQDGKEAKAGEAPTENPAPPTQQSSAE
UniProt Q07157: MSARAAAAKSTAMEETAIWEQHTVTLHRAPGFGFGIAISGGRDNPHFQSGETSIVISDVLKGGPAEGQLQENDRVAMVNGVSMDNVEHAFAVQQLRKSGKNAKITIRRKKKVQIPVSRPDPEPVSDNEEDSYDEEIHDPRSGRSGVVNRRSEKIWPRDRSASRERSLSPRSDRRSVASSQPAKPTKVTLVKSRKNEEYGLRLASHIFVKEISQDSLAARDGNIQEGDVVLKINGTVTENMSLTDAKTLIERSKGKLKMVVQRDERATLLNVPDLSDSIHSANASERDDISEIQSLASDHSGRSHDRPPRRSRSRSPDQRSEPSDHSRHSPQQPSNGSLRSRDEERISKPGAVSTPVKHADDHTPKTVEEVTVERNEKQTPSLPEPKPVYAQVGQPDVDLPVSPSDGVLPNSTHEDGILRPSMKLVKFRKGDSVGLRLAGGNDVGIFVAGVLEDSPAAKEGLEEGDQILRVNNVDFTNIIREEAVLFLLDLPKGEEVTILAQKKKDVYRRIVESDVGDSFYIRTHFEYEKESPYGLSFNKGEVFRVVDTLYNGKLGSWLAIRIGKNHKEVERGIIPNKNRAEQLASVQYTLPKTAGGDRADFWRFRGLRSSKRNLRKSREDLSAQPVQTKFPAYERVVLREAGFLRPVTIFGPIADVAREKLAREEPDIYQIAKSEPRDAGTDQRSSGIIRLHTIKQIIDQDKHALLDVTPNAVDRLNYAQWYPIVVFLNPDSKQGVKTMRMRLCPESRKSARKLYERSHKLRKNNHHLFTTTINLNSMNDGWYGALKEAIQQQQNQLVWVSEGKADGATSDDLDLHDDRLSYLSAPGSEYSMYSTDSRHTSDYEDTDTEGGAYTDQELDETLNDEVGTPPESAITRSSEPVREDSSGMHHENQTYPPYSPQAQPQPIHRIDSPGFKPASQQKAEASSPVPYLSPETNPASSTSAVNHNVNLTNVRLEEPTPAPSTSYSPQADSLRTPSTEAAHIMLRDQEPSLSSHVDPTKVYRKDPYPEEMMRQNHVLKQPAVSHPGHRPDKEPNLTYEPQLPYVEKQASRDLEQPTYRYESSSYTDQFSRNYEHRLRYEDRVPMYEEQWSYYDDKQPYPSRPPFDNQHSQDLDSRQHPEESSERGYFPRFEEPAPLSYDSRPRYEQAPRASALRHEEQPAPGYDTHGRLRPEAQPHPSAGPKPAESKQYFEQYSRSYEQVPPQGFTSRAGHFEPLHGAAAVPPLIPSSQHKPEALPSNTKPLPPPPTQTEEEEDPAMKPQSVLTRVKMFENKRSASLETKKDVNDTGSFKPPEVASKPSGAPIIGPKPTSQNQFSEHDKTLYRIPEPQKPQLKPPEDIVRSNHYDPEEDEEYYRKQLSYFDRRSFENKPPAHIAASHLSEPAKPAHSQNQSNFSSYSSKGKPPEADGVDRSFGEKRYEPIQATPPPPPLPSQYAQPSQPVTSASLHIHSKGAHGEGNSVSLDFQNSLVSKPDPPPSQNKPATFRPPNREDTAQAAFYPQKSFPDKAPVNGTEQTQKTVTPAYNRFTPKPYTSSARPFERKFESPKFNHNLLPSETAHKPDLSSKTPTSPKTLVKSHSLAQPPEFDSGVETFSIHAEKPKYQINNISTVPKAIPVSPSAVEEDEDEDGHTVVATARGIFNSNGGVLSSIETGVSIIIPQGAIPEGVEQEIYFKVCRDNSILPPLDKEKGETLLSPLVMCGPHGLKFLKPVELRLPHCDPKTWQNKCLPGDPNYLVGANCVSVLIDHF

The target in this assay is Y-box binding protein 3 (YBX3) (human (endogenous in MSCs)) (UniProt P16989). As to the kind of experiment: co-IP; protein extracted from MSCs incubated with anti-YBX3 antibody (or IgG control) at 4 °C for 6 h, protein G beads overnight, immunoblot with anti-ZO-1 and anti-YBX3; MSCs transfected beforehand with NC siRNA, si-circSERPINE2, LV vector or LV-circSERPINE2 (Fig. 3L), or with circSERPINE2-WT or truncated circSERPINE2 (fig. S2J-K).

Results are given in words; binding and its absence hold for the method and conditions named. Binding seen in cells or lysates may run through a third protein. Some entries that bind do so weakly or less than the wild type.

Take ZO-1 (from UniProt Q07157 1-1748): the binding result is “binds”.
